The results in this text go back to PMC8281596.

The chains behind the UniProt entries cited, without tags or fusion partners.
UniProt Q91Z83: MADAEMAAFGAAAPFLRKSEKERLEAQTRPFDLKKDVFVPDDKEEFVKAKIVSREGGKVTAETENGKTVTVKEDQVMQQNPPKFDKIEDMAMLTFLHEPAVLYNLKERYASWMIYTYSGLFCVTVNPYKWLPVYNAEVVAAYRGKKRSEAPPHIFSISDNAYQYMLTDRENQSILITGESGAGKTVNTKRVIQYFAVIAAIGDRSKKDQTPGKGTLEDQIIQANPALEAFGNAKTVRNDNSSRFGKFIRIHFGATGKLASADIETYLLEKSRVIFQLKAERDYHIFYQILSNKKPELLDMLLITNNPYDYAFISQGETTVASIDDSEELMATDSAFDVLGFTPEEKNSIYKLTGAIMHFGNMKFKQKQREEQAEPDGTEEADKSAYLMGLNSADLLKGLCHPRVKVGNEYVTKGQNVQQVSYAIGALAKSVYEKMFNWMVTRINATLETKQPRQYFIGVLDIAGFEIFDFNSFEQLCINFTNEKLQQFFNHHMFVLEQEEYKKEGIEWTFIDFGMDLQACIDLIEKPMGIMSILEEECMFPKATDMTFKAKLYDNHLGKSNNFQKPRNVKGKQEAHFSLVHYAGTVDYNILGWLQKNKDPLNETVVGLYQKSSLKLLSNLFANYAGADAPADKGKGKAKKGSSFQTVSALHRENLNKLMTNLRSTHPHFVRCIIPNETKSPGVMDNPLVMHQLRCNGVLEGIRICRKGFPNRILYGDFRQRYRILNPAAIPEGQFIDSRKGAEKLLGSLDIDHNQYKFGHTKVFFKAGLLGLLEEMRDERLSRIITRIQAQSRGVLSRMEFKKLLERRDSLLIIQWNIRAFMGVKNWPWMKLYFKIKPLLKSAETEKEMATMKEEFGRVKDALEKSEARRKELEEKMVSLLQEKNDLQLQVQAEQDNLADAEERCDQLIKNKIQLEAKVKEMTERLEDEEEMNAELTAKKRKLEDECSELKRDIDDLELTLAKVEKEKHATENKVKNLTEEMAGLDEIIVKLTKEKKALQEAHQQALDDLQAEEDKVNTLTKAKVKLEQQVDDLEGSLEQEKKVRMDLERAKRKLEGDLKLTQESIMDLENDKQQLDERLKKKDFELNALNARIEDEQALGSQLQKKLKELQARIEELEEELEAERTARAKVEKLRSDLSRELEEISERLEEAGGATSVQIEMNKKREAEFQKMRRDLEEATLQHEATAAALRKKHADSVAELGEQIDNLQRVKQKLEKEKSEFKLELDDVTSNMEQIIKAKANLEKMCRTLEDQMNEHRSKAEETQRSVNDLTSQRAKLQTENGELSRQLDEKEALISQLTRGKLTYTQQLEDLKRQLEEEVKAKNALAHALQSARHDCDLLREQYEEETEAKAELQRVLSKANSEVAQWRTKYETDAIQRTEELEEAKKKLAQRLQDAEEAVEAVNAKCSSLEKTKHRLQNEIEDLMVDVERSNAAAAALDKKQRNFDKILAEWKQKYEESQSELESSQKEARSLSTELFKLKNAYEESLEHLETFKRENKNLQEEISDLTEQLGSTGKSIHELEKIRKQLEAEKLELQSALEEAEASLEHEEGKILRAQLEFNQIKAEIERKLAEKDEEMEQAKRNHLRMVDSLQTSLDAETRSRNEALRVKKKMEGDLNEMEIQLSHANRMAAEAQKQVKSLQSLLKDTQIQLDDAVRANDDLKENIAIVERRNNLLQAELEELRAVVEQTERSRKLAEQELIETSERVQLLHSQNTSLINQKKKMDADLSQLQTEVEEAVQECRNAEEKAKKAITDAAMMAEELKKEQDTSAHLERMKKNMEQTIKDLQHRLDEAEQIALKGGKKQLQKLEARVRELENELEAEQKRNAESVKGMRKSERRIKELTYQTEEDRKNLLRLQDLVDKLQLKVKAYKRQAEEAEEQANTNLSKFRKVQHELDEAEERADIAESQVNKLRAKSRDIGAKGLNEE

No constants are given. Whether binding was seen depends on the method and setting. Binding seen in cells or lysates may run through a third protein. Some entries that bind do so weakly or less than the wild type.

In this assay the target is T1, YTHDF2 (mouse (endogenous in primary mouse cardiomyocytes)) (UniProt Q91YT7).
T1 sequence: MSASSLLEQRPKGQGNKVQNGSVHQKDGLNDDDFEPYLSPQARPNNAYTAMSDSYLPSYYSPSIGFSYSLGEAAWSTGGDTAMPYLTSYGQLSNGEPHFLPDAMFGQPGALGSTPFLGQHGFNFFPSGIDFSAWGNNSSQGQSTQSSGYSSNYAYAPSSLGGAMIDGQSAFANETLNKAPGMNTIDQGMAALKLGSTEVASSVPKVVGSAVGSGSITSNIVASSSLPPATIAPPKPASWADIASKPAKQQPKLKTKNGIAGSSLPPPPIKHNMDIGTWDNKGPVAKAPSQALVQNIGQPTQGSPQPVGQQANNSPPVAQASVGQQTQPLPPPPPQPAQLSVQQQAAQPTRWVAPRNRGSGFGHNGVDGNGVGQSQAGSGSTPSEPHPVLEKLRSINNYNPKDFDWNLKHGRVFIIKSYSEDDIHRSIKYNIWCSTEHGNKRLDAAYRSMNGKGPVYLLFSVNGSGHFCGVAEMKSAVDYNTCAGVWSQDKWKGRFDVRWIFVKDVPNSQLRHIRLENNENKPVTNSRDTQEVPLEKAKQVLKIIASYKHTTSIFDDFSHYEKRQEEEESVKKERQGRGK
Kind of assay: co-IP; lysate of primary cardiomyocytes treated with ISO (10 μmol/l) or DMSO for 24 h; immunoprecipitated with anti-YTHDF2 or rabbit IgG, protein A/G-agarose beads; Western blotting with anti-MYH7. Background: In western blotting, separated proteins are transferred to a membrane and probed.

“MYH7 (beta-myosin heavy chain) (from UniProt Q91Z83 1-1935)”: the binding result is on record as “binds”.
